{"source": "PubChem BioAssay AID330", "about": "(DTP/NCI, 2004)", "test_system": "P388 leukemia ip, CD2F1 mice, survival T/C", "assay": "NCI In Vivo Anticancer Drug Screen. Data for tumor model P388 Leukemia (intraperitoneal) in CD2F1 (CDF1) mice", "settings": "T/C endpoint: median survival time, higher T/C = longer survival", "key": {"[1]": {"settings": "dose: 240.0 mg/kg/injection, schedule: Q01DX005 (ip), vehicle: saline with Tween-80"}, "[2]": {"settings": "dose: 50.0 mg/kg/injection, schedule: Q01DX009 (ip), vehicle: saline"}, "[3]": {"settings": "dose: 100.0 mg/kg/injection, schedule: Q01DX009 (ip), vehicle: saline"}, "[4]": {"settings": "dose: 12.5 mg/kg/injection, schedule: Q01DX009 (ip), vehicle: saline"}, "[5]": {"settings": "dose: 25.0 mg/kg/injection, schedule: Q01DX009 (ip), vehicle: saline"}, "[6]": {"settings": "dose: 400.0 mg/kg/injection, schedule: Q01DX009 (ip), vehicle: saline"}}, "note": "The list is a part of this screen's results and no random one: it is rich in T/C values a quarter to a half above the control, in often repeated tests (any T/C) and in doses without a T/C. Further doses and runs are listed elsewhere. T/C is the treated group as % of the vehicle group. Some entries give survivors of the animals treated and no T/C: the source files T/C as zero there, which appears to mark a toxic dose or a test without result, not a measured value. Some survivor counts are full or nearly so, which does not show that the dose was tolerated: the source hardly ever lists a survival T/C far under the control, and the zero likely stands for such cases as well. Survivors were counted at the toxicity check, usually on the fifth day, unless a day is given; later deaths do not show. Schedules are NCI's codes, read here as Q, the interval in days (D) or hours (H), X, the number of doses. Some entries were tested several times; their values stand side by side, smallest first. For survival time, the PubChem record calls one and a half times the control and up active, and a quarter to a half above the control has no call in these data; cut-offs in other NCI protocols can differ. Some T/C values are followed by the survivors on the day toxicity was checked, most often the fifth; without a count, all were alive then.", "data": [{"compound": "CN(C)CCCOC1=Nc2ccccc2O/C1=C/c1ccccc1", "values": [{"measurement": "survivor count", "setting": "dose: 200.0 mg/kg/injection, schedule: Q04DX003 (ip), vehicle: saline", "value": "4 of 6"}, {"measurement": "survivor count", "setting": "dose: 400.0 mg/kg/injection, schedule: Q04DX003 (ip), vehicle: saline", "value": "0 of 6"}]}, {"compound": "CC12CC(C(=O)O)C3(O)CC(C)(C1)CC(C)(C2)C3", "note": "(stereo not drawn) (tested in a mixture with another compound)", "values": [{"measurement": "T/C", "setting": "dose: 50.0 mg/kg/injection, schedule: Q01DX009 (ip), vehicle: Klucel (hydroxypropylcellulose) (HPC)", "value": "131 % of control"}, {"measurement": "T/C", "setting": "dose: 100.0 mg/kg/injection, schedule: Q01DX009 (ip), vehicle: Klucel (hydroxypropylcellulose) (HPC)", "value": "140 % of control"}, {"measurement": "T/C", "setting": "dose: 200.0 mg/kg/injection, schedule: Q01DX009 (ip), vehicle: Klucel (hydroxypropylcellulose) (HPC)", "value": "125 and 148 % of control"}, {"measurement": "survivor count", "setting": "dose: 400.0 mg/kg/injection, schedule: Q01DX009 (ip), vehicle: Klucel (hydroxypropylcellulose) (HPC)", "value": "1 of 6"}]}, {"compound": "CC(=O)C(=Cc1ccc(C=C(C(C)=O)C(C)=O)cc1)C(C)=O", "values": [{"measurement": "survivor count", "setting": "[1]", "value": "3 of 6"}]}, {"compound": "COc1ccc(Br)cc1-c1cc2cccc[n+]2o1", "values": [{"measurement": "survivor count", "setting": "[2]", "value": "2 of 6"}]}, {"compound": "O=C(C[n+]1ccccc1)c1ccccc1", "values": [{"measurement": "survivor count", "setting": "[3]", "value": "1 of 6"}]}, {"compound": "Cc1cc(C)c2c(n1)sc1c(=O)n(N)c(C)nc12", "values": [{"measurement": "survivor count", "setting": "dose: 60.0 mg/kg/injection, schedule: Q01DX005 (ip), vehicle: saline with Tween-80", "value": "6 of 6"}, {"measurement": "survivor count", "setting": "dose: 120.0 mg/kg/injection, schedule: Q01DX005 (ip), vehicle: saline with Tween-80", "value": "5 of 6 and 6 of 6"}]}, {"compound": "COc1cc2c(cc1I)-c1c(cc(OC)c(OC)c1OC)CC[C@@H]2NC(C)=O", "values": [{"measurement": "T/C", "setting": "dose: 132.0 mg/kg/injection, schedule: Q01DX009 (ip), vehicle: saline with Tween-80", "value": "145 % of control"}, {"measurement": "T/C", "setting": "dose: 200.0 mg/kg/injection, schedule: Q01DX009 (ip), vehicle: saline sonified", "value": "145 % of control"}, {"measurement": "survivor count", "setting": "dose: 200.0 mg/kg/injection, schedule: Q01DX009 (ip), vehicle: saline with Tween-80", "value": "4 of 6"}, {"measurement": "survivor count", "setting": "dose: 300.0 mg/kg/injection, schedule: Q01DX009 (ip), vehicle: saline with Tween-80", "value": "4 of 6"}, {"measurement": "T/C", "setting": "dose: 400.0 mg/kg/injection, schedule: Q01DX009 (ip), vehicle: saline sonified", "value": "131 % of control [5 of 6 alive]"}]}, {"compound": "CNC(=S)ON1CCCCC1", "values": [{"measurement": "T/C", "setting": "dose: 50.0 mg/kg/injection, schedule: Q01DX009 (ip), vehicle: saline with Tween-80", "value": "125 % of control"}, {"measurement": "survivor count", "setting": "dose: 400.0 mg/kg/injection, schedule: Q01DX009 (ip), vehicle: saline with Tween-80", "value": "0 of 6"}]}, {"compound": "Nc1ncnc2c1cnn2C1OC(CO)C(O)C1O", "note": "(stereo not drawn)", "values": [{"measurement": "T/C", "setting": "[4]", "value": "127 % of control"}, {"measurement": "T/C", "setting": "[5]", "value": "133 % of control"}, {"measurement": "T/C", "setting": "[2]", "value": "129 % of control [5 of 6 alive]"}]}, {"compound": "Oc1ccc2ccccc2c1C=NCCS", "values": [{"measurement": "survivor count", "setting": "[1]", "value": "6 of 6"}]}, {"compound": "CCCCS(=O)(=O)C(C)(Cl)C(=O)OCC", "note": "(stereo not drawn)", "values": [{"measurement": "survivor count", "setting": "dose: 200.0 mg/kg/injection, schedule: Q01DX001 (ip), vehicle: saline with Tween-80", "value": "0 of 6"}, {"measurement": "survivor count", "setting": "dose: 400.0 mg/kg/injection, schedule: Q01DX001 (ip), vehicle: saline with Tween-80", "value": "0 of 6"}]}, {"compound": "CC(=O)Oc1ccc[nH]c1=S", "values": [{"measurement": "survivor count", "setting": "[4]", "value": "0 of 6"}, {"measurement": "survivor count", "setting": "[5]", "value": "0 of 6"}, {"measurement": "survivor count", "setting": "[2]", "value": "0 of 6"}, {"measurement": "survivor count", "setting": "[3]", "value": "0 of 6"}, {"measurement": "survivor count", "setting": "dose: 200.0 mg/kg/injection, schedule: Q01DX009 (ip), vehicle: saline", "value": "0 of 6"}, {"measurement": "survivor count", "setting": "dose: 400.0 mg/kg/injection, schedule: Q01DX008 (ip), vehicle: saline", "value": "3 of 6"}, {"measurement": "T/C", "setting": "[6]", "value": "133 % of control [4 of 6 alive]"}, {"measurement": "survivor count", "setting": "[6]", "value": "0 of 6"}]}, {"compound": "NC1=C(O)C(=O)C(c2cccnc2)O1", "note": "(stereo not drawn)", "values": [{"measurement": "survivor count", "setting": "dose: 60.0 mg/kg/injection, schedule: Q01DX005 (ip), vehicle: Klucel (hydroxypropylcellulose) (HPC)", "value": "6 of 6"}]}]}
